Measurements from patent US20170321245A1, “Flash and Glow 1,2-Dioxetanes” (LIFE TECHNOLOGIES CORPORATION, priority 2011, published 2017).
Some entries share one result that the patent states for a list of compounds. At least one structure is not confirmed: it was looked up by name or label, or the drawing left a doubt.

By UniProt entry, the sequences of proteins in these tests, tags left out. Residues count along the entry.
UniProt P19111, 20-506 limits assumed: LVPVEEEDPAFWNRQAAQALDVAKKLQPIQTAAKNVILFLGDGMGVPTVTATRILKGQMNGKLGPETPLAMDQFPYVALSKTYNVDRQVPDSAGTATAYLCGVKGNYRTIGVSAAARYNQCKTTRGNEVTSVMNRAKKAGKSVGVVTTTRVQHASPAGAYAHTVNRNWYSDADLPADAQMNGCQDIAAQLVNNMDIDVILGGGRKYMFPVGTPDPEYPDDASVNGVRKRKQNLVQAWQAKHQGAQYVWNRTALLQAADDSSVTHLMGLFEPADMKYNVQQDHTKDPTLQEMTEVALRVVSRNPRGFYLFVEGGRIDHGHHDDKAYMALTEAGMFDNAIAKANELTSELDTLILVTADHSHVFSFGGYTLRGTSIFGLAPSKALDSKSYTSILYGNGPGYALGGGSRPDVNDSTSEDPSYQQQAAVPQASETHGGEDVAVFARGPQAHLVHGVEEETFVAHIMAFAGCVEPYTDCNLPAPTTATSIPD

Biological target: T1, streptavidin alkaline phosphatase (Bos taurus, UniProt P19111)
T1 construct: purchased Jackson ImmunoResearch 16-050-084
Test: Sandwich ELISA using microplate as solid support (IL-6 immunoassay)
Assay type: biochemical
Conditions: 25° C., CSPD with Sapphire-II or Sapphire-III, CDP-Star with Sapphire-II

`COC1(c2cccc(OP(=O)(O)O)c2)OOC12C1CC3CC2CC(Cl)(C3)C1` (stereo not shown) [CSPD, reference compound] was tested, and the “time of maximum light emission” value was 30 to 60 min.
